From PubChem BioAssay AID504444 (National Center for Advancing Translational Sciences (NCATS), 2011)
About 7,500 (2.1%) of roughly 360,000 compounds were called active. The shares of active, inactive and inconclusive entries below differ from those in the screen. Calls come from the whole dose curve; as a rule, active = well fitted inhibition curve with a large enough effect; inconclusive = small, poorly fitted or top-dose-only effect, or effect the other way; inactive = flat fitted curve, though single readings scatter. A potency beside an inconclusive call is a rough fit, not a confirmed value.

assay: Nrf2 qHTS screen for inhibitors; conditions: A549 ARE-Fluc reporter, luciferase luminescence, 18-24 h; activity change, negative = inhibition: at 46 µM (top of the series); note: nearly all actives have a fitted effect of over 60% in size
Summary of the method: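 A549 ARE_Fluc cells, 5000/well, 5% FBS OPTI-MEM; compounds in dose-response, 18-24 h at 37 °C/5% CO2; CellTiter-Fluor viability read (Ex 405/Em 525), then BugLite luciferase luminescence = Nrf2 activity.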
% is set by controls: 0 for no effect and ±100 for the full control effect; potency is the fitted concentration of half-maximal effect.

| SMILES | activity change, negative = inhibition | Potency |
| --- | --- | --- |
| COc1ccc(-c2nc(CSc3nnc(C)n4c3cc3occc34)c(C)o2)cc1OC | inactive: 3.14% | – |
| COc1cccc(-c2nc(N3CCC(C)CC3)c3ccccc3n2)c1O | – | inconclusive: 29.1 µM [falling, single point] |
| Cc1nnc2c3ccccc3c(-c3ccccc3)nn12 | – | inconclusive: 25.9 µM [falling, partial curve, poor fit] |
| CC(C)C(NS(=O)(=O)c1ccc2c(c1)oc(=O)n2C)C(=O)NCCc1ccccc1 (stereo not given) | inactive: 10.5% | – |
| COc1cccc(-c2nn(-c3ccccc3)cc2/C=C(/NC(=O)c2ccccc2)C(=O)O)c1 | inactive: -15.4% | – |
| O=C(NOCc1ccccc1)c1ccccc1 | – | inconclusive: 0.206 µM [activator, full curve, poor fit] |
| CC[C@]12c3[nH]c4ccc(OC)cc4c3CCN1C(=O)C(CC(=O)NCC13CC4CC(CC(C4)C1)C3)C[C@@H]2C(=O)N1CCN(C(=O)C2CC2)CC1 (stereo not given in full) | – | inconclusive: 20.6 µM [falling, single point] |
| Cc1c(NC(=O)C2CCN(S(=O)(=O)c3cccs3)CC2)c(=O)n(-c2ccccc2)n1C | – | inconclusive: 29.1 µM [falling, partial curve, poor fit] |
| COc1ccc(-c2c3c(cc(C)[n+]2[O-])oc2ccc(OC)cc23)cc1 | – | inconclusive: 32.6 µM [falling, single point] |
| CCCSc1nsc(NC(=O)C(c2ccccc2)c2ccccc2)n1 | – | inconclusive: 23.1 µM [falling, single point] |
| CC(=O)c1cccc(S(=O)(=O)N2CCN(c3nc4cc(C)cc(C)c4cc3C#N)CC2)c1 | – | inconclusive: 29.1 µM [falling, single point] |
| Cc1ccc(C(=O)N2CCSCC2)cc1 | – | inconclusive: 2.31 µM [activator, partial curve] |
| Cc1cccc(OCC(=O)N(Cc2ccc(C(C)(C)C)cc2)Cc2ccco2)c1 | – | inconclusive: 29.1 µM [falling, single point] |
| COC(=O)c1c(-c2ccccc2)csc1N1C(=O)Nc2ccccc2N1O | – | inconclusive: 9.2 µM [activator, partial curve] |
| CN(C)c1ccc(/C=C/c2noc(-c3ccccc3O)n2)cc1 | – | inconclusive: 23.1 µM [activator, partial curve] |
| COc1ccc(OC)c(-c2csc(NC(=O)CN3C(=O)NC4(CCCC4)C3=O)n2)c1 | – | inconclusive: 20.6 µM [falling, partial curve] |
| Cc1ccc(NC(=O)c2noc3c2CCCCC3)cc1C | – | inconclusive: 0.164 µM [activator, full curve, poor fit] |
| CCOc1ccccc1C(=O)Nc1ccc(NC(=O)c2ccccc2)cc1 | – | inconclusive: 4.61 µM [falling, single point] |
| CCCOc1ccc(-c2nc(C#N)c(N3CCN(CC)CC3)o2)cc1 | – | inconclusive: 0.82 µM [activator, full curve, poor fit] |
| Cc1c(C(=O)Nc2ccc(C(C)C)cc2)sc2nc3n(c(=O)c12)CCC3 | inactive: -13.5% | – |
| CCC(CC)c1nn2c(=O)cc(COc3ccc(NC(=O)c4ccc(C)cc4)cc3)nc2s1 | – | inconclusive: 18.4 µM [activator, partial curve] |
| O=C(O)c1cccc(S(=O)(=O)N2CCN(S(=O)(=O)c3ccc4c(c3)OCCO4)CC2)c1 | inactive: 3.33% | – |

| SMILES | activity change, negative = inhibition | Potency |
| --- | --- | --- |
| O=C(CSc1nc(-c2ccc(F)cc2)cs1)N1CCOCC1 | – | inconclusive: 1.46 µM [falling, full curve, poor fit] |
| COc1ccc(NC(=O)CC2C(=O)N(c3cccc(C)c3)C(=O)N2Cc2cccnc2)cc1 (stereo not given) | – | inconclusive: 29.1 µM [activator, single point] |
| CCn1c(N2CCN(C(=O)NC3CCCCC3)CC2)nc2ccccc21 | – | inconclusive: 2.91 µM [falling, partial curve, poor fit] |
| CCc1ccc(CNC(=O)CN2C(=O)CSc3c2c(C)nn3-c2ccccc2)cc1 | inactive: -19.5% | – |
| Cc1sc2nc(C(C)C)nc(SCC(=O)NCc3ccco3)c2c1C | – | inconclusive: 11.6 µM [falling, partial curve] |
| O=c1[nH]c2ccccc2nc1-c1cccs1 | – | inconclusive: 6.51 µM [activator, single point] |
| Cc1cc(OCC(=O)N2CCCCCC2)ccc1[N+](=O)[O-] | – | inconclusive: 5.17 µM [activator, partial curve] |
| Cc1ccc(C)c(N2CCN(S(=O)(=O)c3ccc4c(c3)NC(=O)CS4)CC2)c1 | – | inconclusive: 29.1 µM [falling, single point] |
| COC(=O)c1cc2sccc2n1Cc1nc(-c2ccc(OC)cc2)oc1C | – | inconclusive: 25.9 µM [activator, single point] |
| CC(C)c1ccc(CN(C(=O)c2ccco2)C2CCS(=O)(=O)C2)cc1 (stereo not given) | inactive: -5.08% | – |
| Cn1nc(-c2ccccc2)c2cc([N+](=O)[O-])ccc21 | – | inconclusive: 8.2 µM [falling, partial curve, poor fit] |
| Cc1nc2c(-c3ccc(F)cc3)cnn2c(N)c1-c1ccc(F)cc1 | – | inconclusive: 18.4 µM [activator, partial curve] |
| Cc1cccc2c1-c1sc(C(=O)N3CCCCC3)cc1CO2 | – | inconclusive: 5.17 µM [activator, partial curve] |
| Cc1ccc(C)c(CN2C(=O)c3ccccc3S(=O)(=O)c3ccc(C(=O)NCCCN4CCCC(C)C4)cc32)c1 (stereo not given) | inactive: 9.92% | – |
| Cc1cc(C(=O)CSc2nncs2)c(C)n1Cc1ccco1 | – | inconclusive: 2.59 µM [activator, single point] |
| Nc1ccc2nc(-c3ccccc3)cnc2c1 | – | inconclusive: 14.6 µM [activator, partial curve] |
| Cc1cc(NC2CCCC2)n2nc(C)c(-c3ccccc3)c2n1 | – | inconclusive: 13 µM [activator, partial curve] |
| CCOC(=O)c1c(NC(=O)C2C3C=CC(C3)C2C(=O)O)sc2c1CCC(CC)C2 (stereo not given) | – | inconclusive: 23.1 µM [falling, single point] |
| CCN(CC)C(=O)N1c2ccccc2C=Cc2ccccc21 | – | inconclusive: 5.8 µM [activator, partial curve] |
| Cc1nc(SCC(=O)Nc2nccs2)c(C#N)c(C)c1C | inactive: -11.4% | – |
| CC(=O)N1CCC2(CC1)OC(=O)C(C)=C2C(=O)Nc1cc(C)ccc1C | – | inconclusive: 20.6 µM [activator, single point] |
| Cc1cc(-c2csc(Nc3ccccn3)n2)ccc1F | – | inconclusive: 1.84 µM [activator, full curve] |

Single records (already shown). Order of values: activity change, negative = inhibition	Potency
Cc1ccc(C)c(CN2C(=O)c3ccccc3S(=O)(=O)c3ccc(C(=O)NCCCN4CCCC(C)C4)cc32)c1 (stereo not given) as listed: inactive: 9.92%	–
Cc1c(C(=O)Nc2ccc(C(C)C)cc2)sc2nc3n(c(=O)c12)CCC3 as listed: inactive: -13.5%	–

Next results.

| SMILES | activity change, negative = inhibition | Potency |
| --- | --- | --- |
| Cc1nn(C(C)C(=O)NCCCc2ccccc2)c(=O)c2nn(-c3ccccc3)c(C)c12 (stereo not given) | – | inconclusive: 14.6 µM [falling, partial curve] |
| O=C(CNc1cccc2ccccc12)N/N=C/c1ccc[nH]1 | – | active: 3.66 µM |
| CCCN(C(=O)c1cc2ccc3cccnc3c2[nH]1)c1ccc(F)cc1 | – | inconclusive: 20.6 µM [activator, partial curve] |
| CCS(=O)(=O)c1ncc(Cl)c(C(=O)Nc2ccc(S(=O)(=O)N3CCCC(C)C3)cc2)n1 (stereo not given) | – | inconclusive: 23.1 µM [falling, single point] |
| O=C(OCC#CCSc1nnc(-c2cccc3ccccc23)o1)c1ccsc1 | – | inconclusive: 23.1 µM [activator, partial curve] |
| COc1ccccc1C1=NC(c2ccc(C)cc2)N=C1C (stereo not given) | – | inconclusive: 2.31 µM [activator, partial curve] |
| COc1ccc(Nc2ccccc2NC(=O)c2ccccc2Br)cc1 | – | inconclusive: 32.6 µM [falling, single point] |
| O=C(N/N=C1\CCCc2ccccc21)c1ccc([N+](=O)[O-])cc1 | – | inconclusive: 4.11 µM [activator, full curve] |
| Cc1ccc(SCC(CC(C)C)N2CCN(C)CCC2=O)cc1 (stereo not given) | – | inconclusive: 1.46 µM [activator, full curve] |
| CCN1CCN(C(=O)C23CCC(C)(C(=O)C2Br)C3(C)C)CC1 (stereo not given) | inactive: 19.1% | – |
| COc1ccc(CNCC(=O)Nc2sccc2C#N)cc1 | – | inconclusive: 6.51 µM [activator, partial curve] |
| COCCCNc1nc2c(-c3ccc(C)cc3)nnn2c2ccccc12 | – | inconclusive: 20.6 µM [activator, partial curve] |
| Cc1ccnc(NC(=O)c2cccc(S(=O)(=O)N3CCN(c4ccc(F)cc4)CC3)c2)c1 | – | inconclusive: 25.9 µM [falling, single point] |
| Cc1ccc(-c2csc(NC(=O)c3cccc(C)c3)c2C(=O)O)cc1 | – | active: 7.31 µM |
| CC(=O)Nc1cc(C(=O)OCC(=O)c2ccc(C)cc2)ccc1C | – | inconclusive: 1.64 µM [activator, full curve] |
| COc1ccc(CNC(=O)CN(C(=O)c2csnn2)c2ccc(C(C)=O)cc2)cc1 | inactive: 10.3% | – |
| O=C(NCc1cccs1)C1CC(c2ccc(F)cc2)=NO1 (stereo not given) | – | inconclusive: 9.2 µM [activator, partial curve] |
| COc1ccc(Cc2cc(-c3ccc(F)cc3)n[nH]c2=O)cc1 | – | inconclusive: 23.1 µM [falling, single point] |
| O=C(Nc1ccc(Cl)cc1)Nc1ccccn1 | – | inconclusive: 8.2 µM [activator, partial curve, poor fit] |
| O=C(O)c1ccccc1SCC(=O)N1CCc2ccccc21 | – | inconclusive: 1.3 µM [activator, partial curve, poor fit] |
| O=C(Cn1nnc2ccccc2c1=O)Nc1ccc(S(=O)(=O)N2CCOCC2)cc1 | – | inconclusive: 6.51 µM [falling, partial curve, poor fit] |

3 of the compounds above, tab-delimited.
SMILES	activity change, negative = inhibition	Potency
COc1ccc(Cc2cc(-c3ccc(F)cc3)n[nH]c2=O)cc1	–	inconclusive: 23.1 µM [falling, single point]
O=C(Nc1ccc(Cl)cc1)Nc1ccccn1	–	inconclusive: 8.2 µM [activator, partial curve, poor fit]
O=C(O)c1ccccc1SCC(=O)N1CCc2ccccc21	–	inconclusive: 1.3 µM [activator, partial curve, poor fit]
